Experimental data as given in patent US11292821B2, “Peptides and combination of peptides for use in immunotherapy against lung cancer, including NSCLC, SCLC and other cancers” (Immatics Biotechnologies GmbH, priority 2017, dated 2022).

System: tumor tissue samples
Assay: Identification and relative quantitation of HLA-presented tumor associated peptides by LC-MS (presentation profile)
Design: species or system human
Details: for Peptide Presentation on cancer entities: cancer entities on which the tumor-associated peptide was found presented (HLA ligandome LC-MS), abbreviations per table footnote

Substance | Peptide Presentation on cancer entities | further results
11 (YYSKSVGFMQW; listed as Homo sapiens) [compound 11] | MEL, OC, UEC | –
193 (VTEFSLNTY; listed as Homo sapiens) [compound 193] | GBC, GC, MEL, OC, OSCAR, UEC | –
120 (ALLANLPAV; listed as Homo sapiens) [compound 120] | GBC, GC, OC, PACA | –
370 (YEDLSQKY; listed as Homo sapiens) [compound 370] | GBM, NHL, OC | –
130 (NLWGGQGLLGV; listed as Homo sapiens) [compound 130] | BRCA, GBC, GBM, GC, HCC, OC, PRCA, UEC | –
198 (YLDPVQRDLY; listed as Homo sapiens) [compound 198] | GBM, GC, HCC, MEL, NHL, OC, UEC | –
93 (TLQEKILQV; listed as Homo sapiens) [compound 93] | CLL, GBM, NHL | –
86 (FVIDGFDEL; listed as Homo sapiens) [compound 86] | CRC, GC, NHL, OSCAR | –
337 (TENRYCVQL; listed as Homo sapiens) [compound 337] | HCC | –
380 (VFQEKHHVI; listed as Homo sapiens) [compound 380] | PRCA | –
181 (TADGKTYYY; listed as Homo sapiens) [compound 181] | GBM, HCC, MEL, PRCA | –
9 (RILRFPWQL; listed as Homo sapiens) [compound 9] | MEL | –
123 (LMAFFLAVV; listed as Homo sapiens) [compound 123] | CCC, HCC, NHL, OSCAR, RCC | –
280 (VPISEEGTPVL; listed as Homo sapiens) [compound 280] | MEL, OC, PRCA, UEC | –
461 (RPILIIVTL; listed as Homo sapiens) [compound 461] | NHL | –
313 (ELKKKEYEEL; listed as Homo sapiens) [compound 313] | NHL | –
348 (AEIQGNINHV; listed as Homo sapiens) [compound 348] | UEC | –
404 (ETARKFLYY; listed as Homo sapiens) [compound 404] | GBM | –
439 (TLDAGKFQIY; listed as Homo sapiens) [compound 439] | GC, HCC, MEL, NHL, PRCA, UEC | –
95 (ITIGVLARV; listed as Homo sapiens) [compound 95] | CRC, PACA | –
64 (NYAIFDEGHML; listed as Homo sapiens) [compound 64] | GBM, GC | –
391 (SLIDMRGIETV; listed as Homo sapiens) [compound 391] | BRCA, CLL, GBM, HCC, HNSCC, OC, UBC | –
SEQ ID No. 3 (YLEKFYGL; listed as Homo sapiens) | – | presentation on various cancer entities (cancer entities on which the peptide is presented (Table 8)): hepatocellular carcinoma
125 (VLQPFLPSI; listed as Homo sapiens) [compound 125] | AML, BRCA, CCC, CLL, CRC, HCC, HNSCC, MEL, NHL, OC, RCC | –
373 (MEMQKSPVF; listed as Homo sapiens) [compound 373] | NHL, OC | –
133 (MTLPVDAVISV; listed as Homo sapiens) [compound 133] | CLL, CRC, HCC, HNSCC, NHL, PRCA, UEC | –
308 (MLKQKVEEL; listed as Homo sapiens) [compound 308] | OSCAR | –
359 (DELFSIALY; listed as Homo sapiens) [compound 359] | NHL | –
116 (VLMEENSKL; listed as Homo sapiens) [compound 116] | GBM | –
SEQ ID NO.: 489 (SEIGKAVGF; listed as Homo sapiens) | – | over-presentation of peptide in cancer tissues compared to normal samples (HLA-B*44 cancer tissues vs HLA-B*44 normal samples (N=15 normal, N=25 tumor), FIGS. 1M-1N): over-presentation
